The text below walks through data of PMC4336758.

No constants are given. Whether binding was seen depends on the method and setting. Some entries that bind do so weakly or less than the wild type.

This test deals with Serum thymidine kinase 1 (STK1) (human (endogenous in serum)) (UniProt P04183). The experiment in a line: SEC; 200 uL serum diluted 1:1 in 0.01 M Hepes, 0.15 M NH4Cl, 0.02% NaN3; Superose 12 column, 0.4 mL/min; 24 fractions tested for TK1 activity and, by immunoaffinity/Western blotting, for the 25 kDa TK1 polypeptide; sera of MDS, breast cancer and prostate cancer patients and of blood donors. (In general: Size exclusion chromatography separates by hydrodynamic size, large species first.)

B1: Serum thymidine kinase 1 (STK1) (protein, UniProt P04183 1-234)
chain: MSCINLPTVLPGSPSKTRGQIQVILGPMFSGKSTELMRRVRRFQIAQYKCLVIKYAKDTRYSSSFCTHDRNTMEALPACLLRDVAQEALGVAVIGIDEGQFFPDIVEFCEAMANAGKTVIVAALDGTFQRKPFGAILNLVPLAESVVKLTAVCMECFREAAYTKRLGTEKEVEVIGGADKYHSVCRLCYFKKASGQPAGPDNKENCPVPGKPGEAVAARKLFAPQQILQCSPAN
On to B1, for which the binding entry is on record as “binds”.
